Experimental data reported in the supplement of paper PMC12823440, “Inhibitors supercharge kinase turnover through native proteolytic circuits” (Nature, 2025).
Some of the results follow. Hit calls seldom repeat between salt and free forms of one compound.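 Kinases, fused to nanoluciferase, were expressed in K562 cells; luminescence was measured every 4 h from 2 to 18 h as percent of control (DMSO = 100%, positive control = 0%). A time point is decreased if signal falls significantly (2 sigma). Hits were called by the authors by a rule that is not shown; the count of time points alone does not decide it.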

Amino acid sequences for entries named in this document (tags omitted). A change or cut given only in a name is not applied to a line headed by its entry.
UniProt Q8IWU2: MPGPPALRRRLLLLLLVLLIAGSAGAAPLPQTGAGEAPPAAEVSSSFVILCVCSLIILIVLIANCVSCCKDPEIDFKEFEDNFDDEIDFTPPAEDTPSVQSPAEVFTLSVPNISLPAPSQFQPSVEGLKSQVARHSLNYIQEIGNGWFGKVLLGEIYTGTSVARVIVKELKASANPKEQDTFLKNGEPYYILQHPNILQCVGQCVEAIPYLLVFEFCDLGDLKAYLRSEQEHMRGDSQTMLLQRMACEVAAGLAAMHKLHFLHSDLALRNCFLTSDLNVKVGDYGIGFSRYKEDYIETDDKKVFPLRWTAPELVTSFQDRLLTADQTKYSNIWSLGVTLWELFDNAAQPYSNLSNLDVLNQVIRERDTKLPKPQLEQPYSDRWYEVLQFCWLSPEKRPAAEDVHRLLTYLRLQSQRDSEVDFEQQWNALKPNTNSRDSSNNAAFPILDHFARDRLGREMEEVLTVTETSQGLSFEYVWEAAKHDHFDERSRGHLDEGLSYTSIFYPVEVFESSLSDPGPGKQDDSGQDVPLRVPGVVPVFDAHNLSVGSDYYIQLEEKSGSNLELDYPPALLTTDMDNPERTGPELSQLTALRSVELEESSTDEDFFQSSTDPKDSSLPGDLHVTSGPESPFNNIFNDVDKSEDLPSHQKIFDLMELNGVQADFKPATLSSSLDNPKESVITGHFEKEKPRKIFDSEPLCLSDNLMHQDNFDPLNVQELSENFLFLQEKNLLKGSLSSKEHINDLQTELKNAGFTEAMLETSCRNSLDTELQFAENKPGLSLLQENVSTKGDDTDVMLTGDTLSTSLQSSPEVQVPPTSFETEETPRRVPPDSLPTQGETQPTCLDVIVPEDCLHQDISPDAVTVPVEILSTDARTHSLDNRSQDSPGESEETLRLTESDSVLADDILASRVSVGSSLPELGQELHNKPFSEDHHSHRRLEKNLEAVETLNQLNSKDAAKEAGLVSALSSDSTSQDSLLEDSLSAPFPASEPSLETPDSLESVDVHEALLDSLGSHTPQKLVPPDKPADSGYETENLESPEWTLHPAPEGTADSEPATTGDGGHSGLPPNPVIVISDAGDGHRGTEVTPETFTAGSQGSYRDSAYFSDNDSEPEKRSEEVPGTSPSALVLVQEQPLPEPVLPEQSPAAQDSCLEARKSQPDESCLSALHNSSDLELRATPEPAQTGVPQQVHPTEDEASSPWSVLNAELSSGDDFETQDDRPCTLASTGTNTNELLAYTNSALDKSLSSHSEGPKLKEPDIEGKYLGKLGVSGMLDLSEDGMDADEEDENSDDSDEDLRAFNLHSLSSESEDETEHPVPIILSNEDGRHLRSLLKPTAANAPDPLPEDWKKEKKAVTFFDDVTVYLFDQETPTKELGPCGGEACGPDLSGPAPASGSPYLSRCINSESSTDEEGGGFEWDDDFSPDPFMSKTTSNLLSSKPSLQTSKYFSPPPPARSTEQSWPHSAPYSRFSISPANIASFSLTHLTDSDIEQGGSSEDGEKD
UniProt P07948: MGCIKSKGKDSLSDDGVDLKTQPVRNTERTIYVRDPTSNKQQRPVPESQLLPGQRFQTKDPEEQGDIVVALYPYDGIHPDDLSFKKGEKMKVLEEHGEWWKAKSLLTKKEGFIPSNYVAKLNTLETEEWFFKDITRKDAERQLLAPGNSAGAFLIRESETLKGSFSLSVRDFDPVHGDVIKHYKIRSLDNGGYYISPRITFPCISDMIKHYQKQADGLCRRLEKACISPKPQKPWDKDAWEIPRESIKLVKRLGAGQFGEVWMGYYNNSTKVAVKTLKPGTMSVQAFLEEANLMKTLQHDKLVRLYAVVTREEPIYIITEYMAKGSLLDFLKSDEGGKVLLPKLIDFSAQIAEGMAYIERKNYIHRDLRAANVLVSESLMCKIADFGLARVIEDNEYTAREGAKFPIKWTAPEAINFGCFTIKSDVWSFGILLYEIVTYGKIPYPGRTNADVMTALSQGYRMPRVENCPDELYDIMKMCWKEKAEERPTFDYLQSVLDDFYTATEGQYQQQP
UniProt Q12851: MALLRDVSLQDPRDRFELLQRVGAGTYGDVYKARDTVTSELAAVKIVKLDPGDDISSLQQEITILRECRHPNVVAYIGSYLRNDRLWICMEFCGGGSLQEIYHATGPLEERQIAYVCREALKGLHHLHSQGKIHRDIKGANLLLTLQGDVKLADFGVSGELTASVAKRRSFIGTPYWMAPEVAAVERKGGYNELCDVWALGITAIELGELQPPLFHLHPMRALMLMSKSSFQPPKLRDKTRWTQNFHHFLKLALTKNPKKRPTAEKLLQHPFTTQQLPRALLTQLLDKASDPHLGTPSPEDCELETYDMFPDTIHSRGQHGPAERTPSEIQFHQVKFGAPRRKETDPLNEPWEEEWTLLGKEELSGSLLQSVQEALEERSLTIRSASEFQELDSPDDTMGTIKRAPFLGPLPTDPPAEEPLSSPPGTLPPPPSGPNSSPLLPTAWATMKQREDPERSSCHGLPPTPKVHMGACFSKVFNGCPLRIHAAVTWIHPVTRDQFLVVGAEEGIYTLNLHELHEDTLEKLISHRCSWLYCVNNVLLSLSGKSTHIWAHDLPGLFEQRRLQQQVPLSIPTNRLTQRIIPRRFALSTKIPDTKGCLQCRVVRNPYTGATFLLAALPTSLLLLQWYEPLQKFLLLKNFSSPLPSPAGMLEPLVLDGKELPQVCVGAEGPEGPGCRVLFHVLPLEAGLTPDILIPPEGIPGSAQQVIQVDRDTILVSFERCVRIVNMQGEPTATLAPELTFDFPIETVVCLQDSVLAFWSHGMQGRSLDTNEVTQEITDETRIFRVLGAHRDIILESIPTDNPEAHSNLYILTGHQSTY
UniProt P28482, whole entry: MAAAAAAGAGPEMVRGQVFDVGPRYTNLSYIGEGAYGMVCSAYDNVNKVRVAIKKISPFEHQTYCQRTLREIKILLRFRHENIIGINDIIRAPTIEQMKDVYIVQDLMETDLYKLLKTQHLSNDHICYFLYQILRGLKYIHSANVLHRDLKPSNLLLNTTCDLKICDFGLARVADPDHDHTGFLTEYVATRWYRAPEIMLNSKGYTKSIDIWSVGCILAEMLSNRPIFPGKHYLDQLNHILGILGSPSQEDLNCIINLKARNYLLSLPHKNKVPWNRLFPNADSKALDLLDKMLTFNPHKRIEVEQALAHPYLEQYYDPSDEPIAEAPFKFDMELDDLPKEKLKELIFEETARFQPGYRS
UniProt P31152, whole entry: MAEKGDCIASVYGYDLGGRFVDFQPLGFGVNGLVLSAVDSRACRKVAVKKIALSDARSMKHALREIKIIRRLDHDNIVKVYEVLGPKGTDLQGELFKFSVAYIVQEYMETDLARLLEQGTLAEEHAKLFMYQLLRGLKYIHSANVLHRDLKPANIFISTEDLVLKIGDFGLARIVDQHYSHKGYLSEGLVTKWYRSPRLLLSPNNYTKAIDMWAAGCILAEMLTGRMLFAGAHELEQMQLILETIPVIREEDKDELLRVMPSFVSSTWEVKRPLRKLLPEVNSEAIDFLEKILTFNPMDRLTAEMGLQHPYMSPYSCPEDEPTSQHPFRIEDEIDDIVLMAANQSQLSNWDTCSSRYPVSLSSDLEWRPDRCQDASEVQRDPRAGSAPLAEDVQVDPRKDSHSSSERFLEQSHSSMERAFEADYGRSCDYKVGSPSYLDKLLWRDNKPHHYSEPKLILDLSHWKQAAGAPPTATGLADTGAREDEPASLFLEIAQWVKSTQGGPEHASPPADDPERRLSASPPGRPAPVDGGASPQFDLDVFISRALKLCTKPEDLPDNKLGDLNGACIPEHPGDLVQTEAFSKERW
UniProt P49137, whole entry, looked up: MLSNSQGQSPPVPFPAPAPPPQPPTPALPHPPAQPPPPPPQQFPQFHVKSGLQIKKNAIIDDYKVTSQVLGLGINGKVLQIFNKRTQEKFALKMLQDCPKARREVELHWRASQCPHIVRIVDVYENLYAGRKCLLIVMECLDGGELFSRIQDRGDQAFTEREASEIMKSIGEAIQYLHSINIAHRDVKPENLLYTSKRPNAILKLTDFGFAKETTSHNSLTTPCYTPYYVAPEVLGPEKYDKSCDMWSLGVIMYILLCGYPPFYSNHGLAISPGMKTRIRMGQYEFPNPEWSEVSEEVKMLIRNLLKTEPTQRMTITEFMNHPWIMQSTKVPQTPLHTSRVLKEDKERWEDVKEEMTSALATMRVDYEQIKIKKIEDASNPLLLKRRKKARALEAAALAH
UniProt Q9BUB5: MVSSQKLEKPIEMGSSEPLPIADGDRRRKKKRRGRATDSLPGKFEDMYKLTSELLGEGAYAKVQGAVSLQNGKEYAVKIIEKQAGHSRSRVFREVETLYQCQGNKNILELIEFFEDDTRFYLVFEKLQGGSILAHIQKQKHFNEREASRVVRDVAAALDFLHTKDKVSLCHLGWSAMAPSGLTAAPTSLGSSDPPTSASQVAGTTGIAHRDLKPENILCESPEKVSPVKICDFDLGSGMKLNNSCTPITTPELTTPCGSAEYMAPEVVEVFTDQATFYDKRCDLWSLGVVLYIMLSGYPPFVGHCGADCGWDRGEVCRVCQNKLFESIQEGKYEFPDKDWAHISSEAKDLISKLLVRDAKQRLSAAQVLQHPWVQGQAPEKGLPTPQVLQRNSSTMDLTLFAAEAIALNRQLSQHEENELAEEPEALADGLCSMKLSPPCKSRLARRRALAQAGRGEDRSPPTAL
UniProt Q16620, whole entry, looked up: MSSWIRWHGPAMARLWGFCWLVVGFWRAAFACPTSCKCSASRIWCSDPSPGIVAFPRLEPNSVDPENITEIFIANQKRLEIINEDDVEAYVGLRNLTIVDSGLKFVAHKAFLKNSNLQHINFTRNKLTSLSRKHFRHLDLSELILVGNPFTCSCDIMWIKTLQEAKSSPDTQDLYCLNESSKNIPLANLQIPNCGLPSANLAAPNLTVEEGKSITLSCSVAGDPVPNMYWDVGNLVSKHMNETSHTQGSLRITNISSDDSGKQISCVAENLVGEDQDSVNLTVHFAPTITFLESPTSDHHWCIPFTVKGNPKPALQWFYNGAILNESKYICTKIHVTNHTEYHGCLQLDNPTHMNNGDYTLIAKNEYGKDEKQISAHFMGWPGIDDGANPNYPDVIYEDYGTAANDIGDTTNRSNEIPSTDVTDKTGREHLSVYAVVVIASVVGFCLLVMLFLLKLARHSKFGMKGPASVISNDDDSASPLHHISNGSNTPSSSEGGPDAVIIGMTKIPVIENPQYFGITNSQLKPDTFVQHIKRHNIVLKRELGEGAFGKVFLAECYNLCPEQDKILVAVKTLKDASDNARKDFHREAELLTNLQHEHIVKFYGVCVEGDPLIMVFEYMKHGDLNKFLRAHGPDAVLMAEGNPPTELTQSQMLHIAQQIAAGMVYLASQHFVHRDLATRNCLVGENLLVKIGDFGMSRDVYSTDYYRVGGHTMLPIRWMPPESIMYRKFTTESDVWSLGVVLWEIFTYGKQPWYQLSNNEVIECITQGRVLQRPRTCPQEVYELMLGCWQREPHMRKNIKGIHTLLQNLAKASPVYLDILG

Legend:
Test in all cases: number of time points (of 5) at which kinase-Nluc abundance scored as decreased, DMSO-normalised (count); higher = more persistent destabilization
Details in all cases: K562; 2-18 h
[1] = target: LMTK2 (UniProt Q8IWU2)
[2] = target: LYN (UniProt P07948)
[3] = target: MAP2K1 (UniProt Q02750)
[4] = target: MAP2K2 (UniProt P36507)
[5] = target: MAP4K2 (UniProt Q12851)
[6] = target: MAPK1 (UniProt P28482)
[7] = target: MAPK4 (UniProt P31152)
[8] = target: MAPKAPK2 (UniProt P49137)
[9] = target: MKNK1 (UniProt Q9BUB5)
[10] = target: NTRK2 (UniProt Q16620)

SMILES	number of time points [1]	number of time points [2]	number of time points [3]	number of time points [4]	number of time points [5]	number of time points [6]	number of time points [7]	number of time points [8]	number of time points [9]	number of time points [10]
CC(C)(O)[C@@H]1CC[C@](C)([C@H]2[C@@H](O)C[C@@]3(C)[C@@H]4C[C@H](O[C@@H]5O[C@H](CO)[C@@H](O)[C@H](O)[C@H]5O)[C@H]5C(C)(C)[C@@H](O[C@@H]6OC[C@@H](O)[C@H](O)[C@H]6O[C@@H]6O[C@H](CO)[C@@H](O)[C@H](O)[C@H]6O)CC[C@@]56C[C@@]46CC[C@]23C)O1 [Astragaloside VI] (10 µM)	0	0	0	0	0	0	0	0	0	0
COC(=O)N[C@@H](C)CNc1nccc(-c2cn(C(C)C)nc2-c2cc(Cl)cc(NS(C)(=O)=O)c2F)n1 [Encorafenib] (10 µM)	0	0	0	0	0	0	0	0	0	0
Cc1cc(Nc2cc(CN3CCOCC3)c3nc(C)c(Cc4ccc(Cl)cc4F)n3n2)n[nH]1 [Gandotinib] (2.5 µM)	0	0	0	0	0	0	0	0	0	0
CNC(=O)c1ccc(-c2cnc3cnc(-c4ccccc4)cn23)cc1 (10 µM)	0	0	0	0	0	0	0	0	0	0
CC(C)n1cnc2c(Nc3cccc(Cl)c3)nc(NCCO)nc21 (10 µM)	0	0	0	0	0	0	0	0	0	0
CCCC(=O)Nc1nc2c(ncn2[C@@H]2O[C@@H]3COP(=O)(O)O[C@H]3[C@H]2OC(=O)CCC)c(=O)[nH]1 [Dibutyryl-cGMP (sodium)] (10 µM)	0	0	0	0	0	0	0	0	0	0
Cc1cc2cc(Oc3ccnc(Nc4cccc(CS(=O)(=O)NCCN(C)C)c4)n3)ccc2[nH]1 [Sulfatinib] (10 µM)	0	0	0	0	0	0	0	0	0	0
CCc1c(C)sc(NC(=S)NC(=O)c2ccc(Cl)cc2)c1C(N)=O (10 µM)	0	0	0	0	0	0	0	0	0	0
Cn1cc(-c2ccc3nnc(C(F)(F)c4ccc5ncccc5c4)n3n2)cn1 (10 µM)	0	0	0	0	0	0	0	0	0	0
N#Cc1ccc(-c2c(-c3ncn[nH]3)sc(N3CCOCC3)c2C#N)c(F)c1 (10 µM)	0	0	0	0	0	0	0	0	0	0
Cc1cnc(Nc2ccc(N3CCN(C)CC3)cc2)nc1Nc1cccc(S(=O)(=O)NC(C)(C)C)c1 (2.5 µM)	0	0	0	0	0	0	0	0	0	0
COc1ccccc1/C=C1\C(=O)Nc2ccccc21 (10 µM)	0	0	0	0	0	0	0	0	0	0
O=Nc1c(-c2c(O)[nH]c3ccccc23)[nH]c2ccccc12 [Indirubin-3'-monoxime] (2.5 µM)	0	0	0	0	0	0	0	0	0	3
NC(=O)c1ccc(-c2cnn3ccc(NCc4cccnc4)nc23)cc1 (2.5 µM)	0	0	0	0	0	0	0	0	0	0
COc1cnccc1Nc1nc(-c2nn(Cc3c(F)cc(OCCO)cc3F)c3ccccc23)ncc1OC (10 µM)	0	0	0	0	0	0	0	0	0	0
CC(=O)Nc1nc2ccc(-c3cnc(C)c(NC(=O)OC4CCCCC4)c3)cc2s1 (10 µM)	0	0	0	0	0	0	0	0	0	0
O=C(O)c1ccccc1Nc1cccc(C(F)(F)F)c1 [Flufenamic acid] (10 µM)	0	0	4	0	0	0	0	0	0	0
O=S(=O)(c1cccc2cnccc12)N1CCNCC1 (10 µM)	0	0	0	0	0	0	0	0	0	0

Look-ups from the entries so far.
Under number of time points [6], Cc1cnc(Nc2ccc(N3CCN(C)CC3)cc2)nc1Nc1cccc(S(=O)(=O)NC(C)(C)C)c1 (2.5 µM) shows 0
Under number of time points [3], NC(=O)c1ccc(-c2cnn3ccc(NCc4cccnc4)nc23)cc1 (2.5 µM) shows 0
